We go through 7 compounds from patent EP2899531B1, “Method for detecting a chiral analytes” (Jacobs University Bremen gGmbH, priority 2013, dated 2015).

Each structure is given as a SMILES string. Values joined by “and” are separate entries in the source; they are usually repeats but may differ in a detail not shown here. Equal entries are not always repeated. Peptide text beside a SMILES is read from it.

The subject of one data set is CB8-MDPP. The data set can be described thus: Induced circular dichroism (ICD) spectra of analytes with CB8-MDPP receptor complex. The settings on record: CB8-MDPP (20 µM), H2O, 22 °C; long-wavelength maxima (>300 nm) in ICD spectra. (In general: Circular dichroism is the unequal absorption of left and right circularly polarised light.)
For a further data set, the system named is CB8-MDAP. Kind of data set: Induced circular dichroism (ICD) spectra of analytes with CB8-MDAP receptor complex. The settings on record: CB8-MDAP (100 µM), H2O, 22 °C; long-wavelength maxima (>300 nm) in ICD spectra.

Take `N[C@@H](CC(=O)O)C(=O)N[C@@H](Cc1ccccc1)C(=O)O` [AspPhe] (H-Asp-Phe-OH): the λ max with CB8-MDPP is 446 nm and 329 nm; in the data set with CB8-MDAP, 425 nm and 322 nm.
Turning to `NCC(=O)N[C@@H](Cc1c[nH]c2ccccc12)C(=O)NCC(=O)O` [GlyTrpGly] (H-Gly-Trp-Gly-OH), the λ max in the data set on CB8-MDPP is 509 nm and 437 nm and 376 nm.
With `N[C@@H](Cc1ccccc1)C(=O)NCC(=O)O` [PheGly] (H-Phe-Gly-OH), the λ max in the data set with CB8-MDPP is 324 nm and 277 nm; in the data set with CB8-MDAP, 347 nm and 317 nm.
As for `N[C@@H](Cc1c[nH]c2ccccc12)C(=O)N1CCC[C@H]1C(=O)O` [TrpPro] (H-Trp-Pro-OH), the λ max with CB8-MDPP is 510 nm and 430 nm and 369 nm; with CB8-MDAP it was 410 nm.
With `N[C@@H](Cc1c[nH]c2ccccc12)C(=O)NCC(=O)NCC(=O)O` [TrpGlyGly] (H-Trp-Gly-Gly-OH), the λ max in the data set with CB8-MDPP is 510 nm and 447 nm and 380 nm.
For `CC(C)[C@H](NC(=O)[C@@H](N)Cc1ccccc1)C(=O)O` [PheVal] (H-Phe-Val-OH), the λ max in the data set with CB8-MDPP was 446 nm and 323 nm; with CB8-MDAP, 347 nm and 317 nm.
Turning to `N[C@@H](CCC(=O)O)C(=O)N[C@@H](Cc1c[nH]c2ccccc12)C(=O)O` [GluTrp] (H-Glu-Trp-OH), the λ max with CB8-MDPP was 512 nm and 447 nm and 383 nm; in the data set on CB8-MDAP, 418 nm and 380 nm and 340 nm.
